Reference: the supplement of paper PMC12067093, “Discovery and optimisation of a covalent ligand for TRIM25 and its application to targeted protein ubiquitination” (Chemical Science, 2025)
Some of the results follow.

Amino acid sequences for entries named in this document (tags omitted). A change or cut given only in a name is not applied to a line headed by its entry.
UniProt Q92551: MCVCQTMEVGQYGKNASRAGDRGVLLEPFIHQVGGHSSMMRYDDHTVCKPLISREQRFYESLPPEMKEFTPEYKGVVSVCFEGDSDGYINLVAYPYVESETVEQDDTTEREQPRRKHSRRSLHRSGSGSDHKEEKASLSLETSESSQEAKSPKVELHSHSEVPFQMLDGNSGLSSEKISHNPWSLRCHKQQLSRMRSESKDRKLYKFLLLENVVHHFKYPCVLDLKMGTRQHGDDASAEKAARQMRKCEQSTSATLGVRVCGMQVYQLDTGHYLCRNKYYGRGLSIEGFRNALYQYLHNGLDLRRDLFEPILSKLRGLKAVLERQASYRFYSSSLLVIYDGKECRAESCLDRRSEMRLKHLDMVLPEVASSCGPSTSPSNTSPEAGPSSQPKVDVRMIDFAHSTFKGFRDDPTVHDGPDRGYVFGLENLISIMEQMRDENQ
UniProt P06213, whole entry, looked up: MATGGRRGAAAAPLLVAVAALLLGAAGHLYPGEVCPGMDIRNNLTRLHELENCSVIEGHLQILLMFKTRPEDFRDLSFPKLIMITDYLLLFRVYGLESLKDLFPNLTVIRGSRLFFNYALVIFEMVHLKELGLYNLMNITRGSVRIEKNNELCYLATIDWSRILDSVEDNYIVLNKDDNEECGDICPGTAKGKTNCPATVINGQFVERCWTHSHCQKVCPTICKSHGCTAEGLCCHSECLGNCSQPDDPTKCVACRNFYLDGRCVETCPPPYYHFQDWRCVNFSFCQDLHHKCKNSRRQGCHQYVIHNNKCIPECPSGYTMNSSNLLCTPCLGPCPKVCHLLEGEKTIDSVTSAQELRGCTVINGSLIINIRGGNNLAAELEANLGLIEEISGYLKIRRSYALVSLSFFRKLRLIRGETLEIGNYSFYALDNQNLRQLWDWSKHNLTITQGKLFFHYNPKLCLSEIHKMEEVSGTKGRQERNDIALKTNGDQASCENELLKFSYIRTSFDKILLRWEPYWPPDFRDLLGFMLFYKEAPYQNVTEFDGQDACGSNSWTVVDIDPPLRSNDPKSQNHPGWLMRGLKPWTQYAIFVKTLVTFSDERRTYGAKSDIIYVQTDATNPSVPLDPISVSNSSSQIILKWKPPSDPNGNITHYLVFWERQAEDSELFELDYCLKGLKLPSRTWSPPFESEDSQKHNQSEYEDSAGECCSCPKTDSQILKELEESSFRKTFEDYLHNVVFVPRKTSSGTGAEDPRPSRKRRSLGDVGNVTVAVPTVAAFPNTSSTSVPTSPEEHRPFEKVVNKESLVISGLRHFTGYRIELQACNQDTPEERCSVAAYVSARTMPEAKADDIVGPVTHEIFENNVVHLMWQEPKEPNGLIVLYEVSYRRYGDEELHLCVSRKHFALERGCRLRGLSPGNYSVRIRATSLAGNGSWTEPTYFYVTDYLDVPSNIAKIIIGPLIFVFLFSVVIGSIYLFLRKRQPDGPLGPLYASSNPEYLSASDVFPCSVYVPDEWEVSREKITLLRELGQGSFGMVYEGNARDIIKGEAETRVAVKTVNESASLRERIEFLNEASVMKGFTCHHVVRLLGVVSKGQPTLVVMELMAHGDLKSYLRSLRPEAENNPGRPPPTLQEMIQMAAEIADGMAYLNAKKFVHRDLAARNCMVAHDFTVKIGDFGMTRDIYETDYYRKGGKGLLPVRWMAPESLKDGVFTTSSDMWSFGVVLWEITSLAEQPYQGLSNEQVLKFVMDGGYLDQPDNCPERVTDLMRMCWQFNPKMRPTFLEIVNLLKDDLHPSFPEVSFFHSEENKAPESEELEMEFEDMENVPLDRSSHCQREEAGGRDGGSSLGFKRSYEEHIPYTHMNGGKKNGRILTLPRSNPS
UniProt O00410: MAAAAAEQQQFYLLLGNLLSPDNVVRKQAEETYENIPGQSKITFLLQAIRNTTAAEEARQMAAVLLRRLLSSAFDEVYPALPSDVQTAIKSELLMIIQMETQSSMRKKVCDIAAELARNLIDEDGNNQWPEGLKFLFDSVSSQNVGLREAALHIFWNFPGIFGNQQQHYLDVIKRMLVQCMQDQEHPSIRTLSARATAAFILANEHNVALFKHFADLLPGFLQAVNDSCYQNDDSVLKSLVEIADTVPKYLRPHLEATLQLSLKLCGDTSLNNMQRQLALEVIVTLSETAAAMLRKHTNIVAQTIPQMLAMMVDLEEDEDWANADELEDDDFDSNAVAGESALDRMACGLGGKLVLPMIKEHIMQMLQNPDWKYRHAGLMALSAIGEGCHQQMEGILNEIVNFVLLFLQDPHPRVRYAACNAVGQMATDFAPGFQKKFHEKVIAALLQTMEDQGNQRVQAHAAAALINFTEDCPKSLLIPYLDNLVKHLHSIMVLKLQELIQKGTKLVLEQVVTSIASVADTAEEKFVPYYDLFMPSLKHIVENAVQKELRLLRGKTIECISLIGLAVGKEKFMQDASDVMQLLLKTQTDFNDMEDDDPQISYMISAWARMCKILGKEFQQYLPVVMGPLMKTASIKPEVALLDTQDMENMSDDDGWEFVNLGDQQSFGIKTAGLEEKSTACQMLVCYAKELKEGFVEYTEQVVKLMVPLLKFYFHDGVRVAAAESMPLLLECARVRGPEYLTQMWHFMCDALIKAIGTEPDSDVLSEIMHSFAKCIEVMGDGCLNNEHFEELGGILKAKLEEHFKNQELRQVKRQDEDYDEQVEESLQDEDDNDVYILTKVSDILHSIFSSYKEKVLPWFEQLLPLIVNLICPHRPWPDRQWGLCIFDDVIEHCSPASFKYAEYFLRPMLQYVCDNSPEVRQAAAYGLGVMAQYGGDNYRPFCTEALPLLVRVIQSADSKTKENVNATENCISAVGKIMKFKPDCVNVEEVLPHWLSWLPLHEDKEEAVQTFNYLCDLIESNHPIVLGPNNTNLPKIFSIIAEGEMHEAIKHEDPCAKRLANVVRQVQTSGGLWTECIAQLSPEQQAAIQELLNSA
UniProt Q86VI3: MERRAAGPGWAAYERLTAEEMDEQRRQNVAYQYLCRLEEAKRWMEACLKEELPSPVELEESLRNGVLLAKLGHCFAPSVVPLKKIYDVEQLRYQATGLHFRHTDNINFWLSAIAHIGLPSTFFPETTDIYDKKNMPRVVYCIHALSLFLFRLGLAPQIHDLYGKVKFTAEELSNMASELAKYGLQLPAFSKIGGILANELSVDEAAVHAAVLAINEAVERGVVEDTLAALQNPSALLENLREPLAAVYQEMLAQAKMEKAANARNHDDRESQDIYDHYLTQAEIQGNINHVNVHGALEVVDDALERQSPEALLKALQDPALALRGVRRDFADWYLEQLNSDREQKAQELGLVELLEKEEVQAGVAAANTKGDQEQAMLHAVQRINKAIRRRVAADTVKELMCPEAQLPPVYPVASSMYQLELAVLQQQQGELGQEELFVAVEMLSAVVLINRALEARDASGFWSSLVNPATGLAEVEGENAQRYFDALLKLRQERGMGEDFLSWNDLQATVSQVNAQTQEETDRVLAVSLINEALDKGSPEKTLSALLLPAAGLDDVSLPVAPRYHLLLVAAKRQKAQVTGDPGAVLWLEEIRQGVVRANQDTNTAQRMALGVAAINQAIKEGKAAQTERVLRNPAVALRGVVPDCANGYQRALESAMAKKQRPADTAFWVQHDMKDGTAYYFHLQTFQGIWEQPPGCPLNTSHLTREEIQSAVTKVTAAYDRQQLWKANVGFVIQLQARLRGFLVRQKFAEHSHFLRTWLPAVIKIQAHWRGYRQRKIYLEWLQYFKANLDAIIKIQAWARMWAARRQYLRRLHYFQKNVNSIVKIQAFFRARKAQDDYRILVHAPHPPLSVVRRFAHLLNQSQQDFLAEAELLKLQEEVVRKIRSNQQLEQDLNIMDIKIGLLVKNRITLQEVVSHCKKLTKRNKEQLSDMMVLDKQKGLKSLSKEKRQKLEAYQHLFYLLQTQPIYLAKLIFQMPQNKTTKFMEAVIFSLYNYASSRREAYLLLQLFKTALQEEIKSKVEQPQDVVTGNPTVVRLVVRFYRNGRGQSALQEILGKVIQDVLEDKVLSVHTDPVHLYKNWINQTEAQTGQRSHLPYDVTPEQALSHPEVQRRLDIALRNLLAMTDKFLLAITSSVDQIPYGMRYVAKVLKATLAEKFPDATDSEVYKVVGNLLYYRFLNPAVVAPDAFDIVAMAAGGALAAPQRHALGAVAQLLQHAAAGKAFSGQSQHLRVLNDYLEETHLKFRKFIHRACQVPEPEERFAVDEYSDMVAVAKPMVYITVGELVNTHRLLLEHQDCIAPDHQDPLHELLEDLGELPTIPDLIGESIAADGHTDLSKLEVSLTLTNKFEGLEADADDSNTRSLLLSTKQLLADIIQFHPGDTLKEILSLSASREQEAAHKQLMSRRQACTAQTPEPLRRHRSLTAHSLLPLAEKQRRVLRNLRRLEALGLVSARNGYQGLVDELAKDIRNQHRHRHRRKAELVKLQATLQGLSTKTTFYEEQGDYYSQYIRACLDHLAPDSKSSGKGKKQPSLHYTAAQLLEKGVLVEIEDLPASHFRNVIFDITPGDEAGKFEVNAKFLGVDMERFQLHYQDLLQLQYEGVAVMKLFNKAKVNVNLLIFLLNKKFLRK
UniProt P05556, whole entry, looked up: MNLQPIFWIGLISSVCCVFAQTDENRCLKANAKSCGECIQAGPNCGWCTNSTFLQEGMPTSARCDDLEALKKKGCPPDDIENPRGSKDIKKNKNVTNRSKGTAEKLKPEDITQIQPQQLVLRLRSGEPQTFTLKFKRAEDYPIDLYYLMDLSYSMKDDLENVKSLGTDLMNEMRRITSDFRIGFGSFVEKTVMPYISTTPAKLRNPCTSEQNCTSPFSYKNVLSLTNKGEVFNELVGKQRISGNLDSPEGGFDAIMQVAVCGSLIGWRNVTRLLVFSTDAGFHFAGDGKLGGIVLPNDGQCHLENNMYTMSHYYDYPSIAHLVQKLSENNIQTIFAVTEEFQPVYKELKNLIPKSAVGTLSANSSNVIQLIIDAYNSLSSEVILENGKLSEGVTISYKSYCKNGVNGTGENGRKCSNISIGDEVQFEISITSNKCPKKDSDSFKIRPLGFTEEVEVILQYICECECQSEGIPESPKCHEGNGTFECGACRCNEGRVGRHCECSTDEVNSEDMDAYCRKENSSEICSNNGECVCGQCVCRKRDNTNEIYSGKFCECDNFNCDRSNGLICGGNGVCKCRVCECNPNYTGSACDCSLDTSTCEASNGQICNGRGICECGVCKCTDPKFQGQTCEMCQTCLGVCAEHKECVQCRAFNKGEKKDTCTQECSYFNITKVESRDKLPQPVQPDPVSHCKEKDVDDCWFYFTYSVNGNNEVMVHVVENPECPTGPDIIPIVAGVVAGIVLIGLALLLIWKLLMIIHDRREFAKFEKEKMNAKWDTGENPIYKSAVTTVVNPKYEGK
UniProt Q9H9L3: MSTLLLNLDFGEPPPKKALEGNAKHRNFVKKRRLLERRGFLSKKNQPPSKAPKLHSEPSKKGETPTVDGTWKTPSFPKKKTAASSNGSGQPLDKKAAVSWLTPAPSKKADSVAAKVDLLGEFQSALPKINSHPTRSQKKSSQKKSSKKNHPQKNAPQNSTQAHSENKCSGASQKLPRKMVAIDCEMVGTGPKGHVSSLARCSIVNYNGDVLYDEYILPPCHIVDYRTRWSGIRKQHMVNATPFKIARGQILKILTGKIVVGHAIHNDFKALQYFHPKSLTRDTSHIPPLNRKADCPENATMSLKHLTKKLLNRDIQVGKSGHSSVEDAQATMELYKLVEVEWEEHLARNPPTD
UniProt Q9NVM9, whole entry, looked up: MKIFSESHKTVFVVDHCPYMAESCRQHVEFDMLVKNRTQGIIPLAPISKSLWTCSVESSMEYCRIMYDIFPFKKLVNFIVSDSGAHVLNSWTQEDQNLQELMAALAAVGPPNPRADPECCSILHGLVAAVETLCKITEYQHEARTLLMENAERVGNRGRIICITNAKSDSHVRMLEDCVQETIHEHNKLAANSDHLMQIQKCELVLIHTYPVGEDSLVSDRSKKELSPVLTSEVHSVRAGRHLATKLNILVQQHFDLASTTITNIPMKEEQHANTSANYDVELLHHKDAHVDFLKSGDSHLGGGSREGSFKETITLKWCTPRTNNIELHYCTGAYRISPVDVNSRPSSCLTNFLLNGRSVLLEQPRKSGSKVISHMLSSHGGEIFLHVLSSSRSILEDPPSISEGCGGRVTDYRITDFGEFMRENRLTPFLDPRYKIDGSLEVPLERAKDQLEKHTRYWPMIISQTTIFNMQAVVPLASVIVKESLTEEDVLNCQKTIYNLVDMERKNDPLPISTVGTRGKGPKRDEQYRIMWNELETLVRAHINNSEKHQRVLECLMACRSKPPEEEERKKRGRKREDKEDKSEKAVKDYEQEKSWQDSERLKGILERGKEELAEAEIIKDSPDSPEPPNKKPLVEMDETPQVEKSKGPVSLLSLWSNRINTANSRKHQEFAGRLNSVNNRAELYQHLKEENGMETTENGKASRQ

Compound: CC1Cc2ccccc2N1C(=O)C1CCCN(C1)C(=O)CCl (mixture of isomers) [TRIM25 ligand 11 (diastereomer mixture)]
Assay: probe-labelled cysteine peptide fold change vs DMSO (competition) (log2 fold change); higher = less target engagement (more negative = stronger competition)
Conditions: THP-1, incubation time: 4 h
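Also: competitive chemoproteomic profiling in live THP-1 cells with an iodoacetamide desthiobiotin (IA-DTB) probe, comparing probe-labelled peptide intensities in compound-treated cells against DMSO-treated controls.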

| Target | probe-labelled cysteine peptide fold change (10 µM) | probe-labelled cysteine peptide fold change (50 µM) |
| --- | --- | --- |
| IREB2_P48200_467_SDFQACLNEK (UniProt P48200) | -0.0124 | -0.139 |
| INTS3_Q68E01_959_QNFFSQTPILQALQHVQASCDEAHK (UniProt Q68E01) | -0.118 | -0.143 |
| INTS9_Q9NV88_471_EVQPLHVVCPEQYTQPPPAQSHR (UniProt Q9NV88) | 0.0446 | 0.0453 |
| IP6K1_Q92551_221_YPCVLDLK (UniProt Q92551) | -0.0788 | 0.0174 |
| INTS3_Q68E01_866_PCHPDDQFTTSILR (UniProt Q68E01) | -0.0485 | 0.115 |
| ITGAV_P06756_172_TVEYAPCR (UniProt P06756) | -0.0412 | 0.00849 |
| INSR_P06213_196_TNCPATVINGQFVER (UniProt P06213) | 0.0441 | 0.0234 |
| IQGAP1_P46940_45_RQNVAYEYLCHLEEAK (UniProt P46940) | 0.053 | 0.173 |
| INSR_P06213_462_LCLSEIHK (UniProt P06213) | 0.0282 | 0.0252 |
| ITGB1BP1_O14713_60_SSGQSNNNSDTCAEFR (UniProt O14713) | -0.172 | -0.318 |
| INTS11_Q5TA45_354_NMVIMPGYCVQGTVGHK (UniProt Q5TA45) | -0.0363 | -0.099 |
| IPO5_O00410_110_VCDIAAELAR (UniProt O00410) | 0.168 | 0.0478 |
| ITGB2_P05107_445_ALGFTDIVTVQVLPQCECR (UniProt P05107) | 0.102 | 0.099 |
| IQGAP3_Q86VI3_1411_RQACTAQTPEPLRR (UniProt Q86VI3) | 0.00454 | 0.0194 |
| IQGAP3_Q86VI3_1254_ACQVPEPEER (UniProt Q86VI3) | -0.105 | 0.0275 |
| IQGAP3_Q86VI3_74_LGHCFAPSVVPLK (UniProt Q86VI3) | 0.0152 | 0.0451 |
| ITGA5_P08648_192_ILEYAPCR (UniProt P08648) | 0.036 | 0.154 |
| IPO7_O95373_736_VLTGVAGEDAECHAAK (UniProt O95373) | 0.25 | 0.0627 |
| ITGB2_P05107_467_GFLECGICR (UniProt P05107) | -0.0319 | 0.298 |
| ITGAL_P20701_1154_GVPNGIPAEDSEQLASGQEAGDPGCLK (UniProt P20701) | 0.0299 | -0.0274 |
| IPO13_O94829_848_CGEVESVGK (UniProt O94829) | -0.0111 | -0.255 |

| Target | probe-labelled cysteine peptide fold change (10 µM) | probe-labelled cysteine peptide fold change (50 µM) |
| --- | --- | --- |
| IRF2BP1_Q8IU81_518_LEDTHFVQCPSVPGHK (UniProt Q8IU81) | 0.0586 | -0.0162 |
| IREB2_P48200_120_VHPACPTDLTVDHSLQIDFSK (UniProt P48200) | -0.0672 | 0.0352 |
| INTS3_Q68E01_740_LLCHLTPSIYTEFPDETLR (UniProt Q68E01) | 0.222 | 0.238 |
| IRF2BP2_Q7Z5L9_549_QQGASGEVYCPSGEK (UniProt Q7Z5L9) | -0.0492 | 0.0193 |
| IRF8_Q02556_299+306_VFCSGNAVVCK (UniProt Q02556) | 0.124 | 0.229 |
| IPO4_Q8TEX9_459_ACYALENFVENLGPK (UniProt Q8TEX9) | 0.062 | 0.238 |
| INTS14_Q96SY0_464_GVADMLERECTLLPETAHPDAAFQLTHAAQQLK (UniProt Q96SY0) | -0.188 | 0.158 |
| INTS8_Q75QN2_42_KPCPDPAPVQLIVQFLEQASKPSVNEQNQVQPPPDNKR (UniProt Q75QN2) | -0.272 | 0.0474 |
| ITGB1_P05556_64_CDDLEALK (UniProt P05556) | -0.0378 | -0.0333 |
| IPO5_O00410_560_TIECISLIGLAVGK (UniProt O00410) | 0.00556 | 0.0463 |
| INTS6L_Q5JSJ4_745_NCSLSVDDQK (UniProt Q5JSJ4) | 0.156 | -0.0158 |
| IPO5_O00410_229_HFADLLPGFLQAVNDSCYQNDDSVLK (UniProt O00410) | -0.169 | 0.049 |
| ITGB2_P05107_481+483_NCECQTQGR (UniProt P05107) | -0.00763 | 0.153 |
| ISG20L2_Q9H9L3_184_MVAIDCEMVGTGPK (UniProt Q9H9L3) | -0.00824 | 0.164 |
| INTS2_Q9H0H0_1188_DTGSMDPDVQLCHCIER (UniProt Q9H0H0) | 0.243 | 0.145 |
| ITGB2_P05107_670_ERDSEGCWVAYTLEQQDGMDR (UniProt P05107) | 0.257 | 0.183 |
| IREB2_P48200_604_QGDLVTCGILSGNK (UniProt P48200) | -0.0687 | -0.0857 |
| IPO5_O00410_348_MACGLGGK (UniProt O00410) | -0.00928 | -0.0308 |
| INTS14_Q96SY0_171_LYIMCMANLEELQSTDSLECLER (UniProt Q96SY0) | -0.0852 | -0.0827 |
| IRGQ_Q8WZA9_28_SALIAALCDK (UniProt Q8WZA9) | -0.00885 | -0.0219 |
| INVS_Q9Y283_702_GQSACVHFRPNEGSDGSR (UniProt Q9Y283) | 0.00109 | -0.0469 |

| Target | probe-labelled cysteine peptide fold change (10 µM) | probe-labelled cysteine peptide fold change (50 µM) |
| --- | --- | --- |
| INTS3_Q68E01_498_EKFPEFCSSPSPPVEVK (UniProt Q68E01) | 0.218 | 0.0802 |
| INTS13_Q9NVM9_134_ADPECCSILHGLVAAVETLCK (UniProt Q9NVM9) | 0.0397 | -0.0396 |
| ITGB1_P05556_691_DKLPQPVQPDPVSHCK (UniProt P05556) | -0.0568 | -0.0219 |
| ITGAX_P20702_848+863_SLHLTCDSAPVGSQGTWSTSCR (UniProt P20702) | 0.132 | -0.0468 |
| ITGB2_P05107_198_ECQPPFAFR (UniProt P05107) | -0.0135 | -0.0218 |
| INTS1_Q8N201_2099_LMSSAEECCR (UniProt Q8N201) | 0.119 | 0.0951 |
| INTS1_Q8N201_1833_VPVPEVLLHSEGAASSSVCK (UniProt Q8N201) | 0.0332 | -0.0377 |
| INSR_P06213_899_YGDEELHLCVSR (UniProt P06213) | 0.0425 | -0.0874 |
| ITGAL_P20701_998_IQPSIHDHNIPTLEAVVGVPQPPSEGPITHQWSVQMEPPVPCHYEDLER (UniProt P20701) | 0.305 | 0.0829 |
| INSR_P06213_1083_GFTCHHVVR (UniProt P06213) | 0.179 | 0.357 |
| ITGB2_P05107_481_NCECQTQGR (UniProt P05107) | -0.17 | -0.216 |
| IPO5_O00410_110_KVCDIAAELAR (UniProt O00410) | -0.114 | -0.0957 |
| IPO5_O00410_180_MLVQCMQDQEHPSIR (UniProt O00410) | -0.0156 | -0.118 |
| ISG20L2_Q9H9L3_295_KADCPENATMSLK (UniProt Q9H9L3) | 0.0817 | -0.0591 |
| ITGB2_P05107_73_GCAADDIMDPTSLAETQEDHNGGQK (UniProt P05107) | -0.0388 | 0.0326 |
| INTS5_Q6P9B9_245_VLSCGLK (UniProt Q6P9B9) | -0.207 | -0.0661 |
| IPO4_Q8TEX9_95_ETEHCVSLSLAQLSATIFR (UniProt Q8TEX9) | -0.000253 | 0.0487 |
| INSR_P06213_1165_NCMVAHDFTVK (UniProt P06213) | 0.0305 | 0.0907 |
| IPO5_O00410_1057_IFSIIAEGEMHEAIKHEDPCAK (UniProt O00410) | -0.159 | -0.272 |
| INTS2_Q9H0H0_1186+1188_DTGSMDPDVQLCHCIER (UniProt Q9H0H0) | 0.17 | 0.315 |
| ITGB2_P05107_670_DSEGCWVAYTLEQQDGMDR (UniProt P05107) | 0.401 | 0.18 |

| Target | probe-labelled cysteine peptide fold change (10 µM) | probe-labelled cysteine peptide fold change (50 µM) |
| --- | --- | --- |
| INTS5_Q6P9B9_485_NHVGELCGETLR (UniProt Q6P9B9) | -0.107 | 0.176 |
| IPO5_O00410_687_STACQMLVCYAK (UniProt O00410) | -0.0159 | -0.01 |
| ITGB2_P05107_420_VTATECIQEQSFVIR (UniProt P05107) | 0.0878 | 0.0923 |
| IP6K1_Q92551_248_KCEQSTSATLGVR (UniProt Q92551) | -0.0326 | -0.0539 |
| ISG15_P05161_78_LAVHPSGVALQDRVPLASQGLGPGSTVLLVVDKCDEPLSILVR (UniProt P05161) | -0.0389 | -0.393 |
| INTS7_Q9NVH2_374_VLTNITVSCQEK (UniProt Q9NVH2) | -0.0949 | -0.066 |
| ITGB2_P05107_590_RVECSGR (UniProt P05107) | 0.262 | 0.414 |
| IQGAP3_Q86VI3_74_LGHCFAPSVVPLKK (UniProt Q86VI3) | -0.126 | -0.078 |
| INTS2_Q9H0H0_722_LLATNYPHLCIVDDWICEEEITGTDALLRR (UniProt Q9H0H0) | -0.262 | -0.192 |
| IQGAP1_P46940_781_QIPAITCIQSQWR (UniProt P46940) | 0.167 | 0.19 |
| ITGB2_P05107_467+470_GFLECGICR (UniProt P05107) | -0.0181 | 0.244 |
| INTS14_Q96SY0_218_CGHLTADVQVFPRPEPFVVDEEIDPIPK (UniProt Q96SY0) | 0.119 | 0.0109 |
| IRF9_Q00978_241_VVGEAQVQSLDCR (UniProt Q00978) | -0.0252 | -0.0765 |
| INPP5D_Q92835_4_MVPCWNHGNITR (UniProt Q92835) | -0.0643 | -0.13 |
| INPP5D_Q92835_1050_KEPPPCPEPGILSPSIVLTK (UniProt Q92835) | -0.0387 | -0.231 |
| IPO5_O00410_915_YAEYFLRPMLQYVCDNSPEVR (UniProt O00410) | 0.119 | -0.0734 |
| INTS5_Q6P9B9_183_VPHATGALNELLQLWMGCR (UniProt Q6P9B9) | -0.126 | -0.411 |
| IRAK3_Q9Y616_5_AGNCGAR (UniProt Q9Y616) | -0.167 | -0.347 |
| IRF2BP1_Q8IU81_207_NADCLAELNEAMR (UniProt Q8IU81) | -0.113 | -0.28 |
| INTS13_Q9NVM9_202_CELVLIHTYPVGEDSLVSDR (UniProt Q9NVM9) | 0.145 | 0.107 |
